PubChem BioAssay AID1259254 | NCATS, 2017
Aim: 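Genome-wide screen for genes that prevent DNA re-replication in cancer cells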 (primary screen). Cell system: human HCT116 colorectal cancer cells. Reagent: single siRNA against human genes. Time to read-out: 3 days. Measured: 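Imaged Hoechst DNA stain sorts each cell into a cycle phase by DNA amount; per plate, G2 fraction set to 0% for non-targeting and 100% for GMNN siRNA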. Direction: G2 robust z-score and G2 cells, % of GMNN control: higher = more G2 cells, more excess DNA replication. Hit rule: 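An siRNA counts as active if its G2 robust z-score lies at least 5 MADs above the screen median; here such calls match roughly 38% of GMNN control or more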.
Here is one part, drawn at random, of about 59,000 deposited reagents. About 1,550 of them (2.6%) count as active. 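G2 share is only a proxy for re-replication; each gene was hit by three separate siRNAs, and active genes were retested.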 Reagents against one gene are numbered here. Further read-outs or replicates are left out here. Not stated in the record: the amount of reagent.

gene symbol | reagent | G2 robust z-score | G2 cells, % of GMNN control | Outcome
CALY | 1 | 3.2 | 25.5 | inactive
CALY | 2 | -0.152 | 1.9 | inactive
CALY | 3 | 0.468 | 6.26 | inactive
MYL2 | 1 | -0.282 | 0.984 | inactive
MYL2 | 2 | -0.144 | 1.95 | inactive
MYL2 | 3 | -1.06 | -4.52 | inactive
TMEM256P1 | 1 | 1.98 | 16.9 | inactive
TMEM256P1 | 2 | 0.471 | 6.28 | inactive
TMEM256P1 | 3 | 0.776 | 8.43 | inactive
MECP2 | 1 | 0.464 | 6.24 | inactive
MECP2 | 2 | -1.03 | -4.26 | inactive
MECP2 | 3 | -0.639 | -1.53 | inactive
OR5I1 | 1 | 0.976 | 9.83 | inactive
OR5I1 | 2 | 2.84 | 23 | inactive
OR5I1 | 3 | -0.189 | 1.64 | inactive
LIPF | 1 | -0.596 | -1.22 | inactive
LIPF | 2 | 0.454 | 6.16 | inactive
LIPF | 3 | 0.962 | 9.73 | inactive
GMPS | 1 | -0.884 | -3.25 | inactive
GMPS | 2 | 1.69 | 14.8 | inactive
GMPS | 3 | -1.07 | -4.54 | inactive
BMS1P21 | 1 | -0.61 | -1.32 | inactive
BMS1P21 | 2 | -0.465 | -0.301 | inactive
BMS1P21 | 3 | 6.4 | 48 | active
NUP205 | 1 | 1.38 | 12.7 | inactive
NUP205 | 2 | 1.63 | 14.5 | inactive
NUP205 | 3 | 2 | 17 | inactive
LOC100288510 | 1 | 3.29 | 26.1 | inactive
LOC100288510 | 2 | -0.957 | -3.76 | inactive
LOC100288510 | 3 | 0.407 | 5.83 | inactive
DND1 | 1 | -0.606 | -1.3 | inactive
DND1 | 2 | 1.36 | 12.6 | inactive
DND1 | 3 | -0.447 | -0.177 | inactive
VWA1 | 1 | -0.441 | -0.135 | inactive
VWA1 | 2 | -1.33 | -6.4 | inactive
VWA1 | 3 | -0.179 | 1.71 | inactive
CCAR1 | 1 | -0.00182 | 2.95 | inactive
CCAR1 | 2 | -1.13 | -4.98 | inactive
CCAR1 | 3 | 0.151 | 4.03 | inactive
FUOM | 1 | -0.343 | 0.552 | inactive
FUOM | 2 | 0.643 | 7.49 | inactive
FUOM | 3 | -0.59 | -1.18 | inactive
KIAA1210 | 1 | -0.871 | -3.16 | inactive
KIAA1210 | 2 | 0.834 | 8.84 | inactive
KIAA1210 | 3 | 0.206 | 4.41 | inactive
TMEM161B | 1 | 1.45 | 13.1 | inactive
TMEM161B | 2 | -0.941 | -3.65 | inactive
TMEM161B | 3 | 0.422 | 5.94 | inactive
CXCL5 | 1 | -0.757 | -2.36 | inactive
CXCL5 | 2 | -1.12 | -4.89 | inactive
CXCL5 | 3 | 0.449 | 6.13 | inactive
CDK16 | 1 | 1.58 | 14.1 | inactive
CDK16 | 2 | -0.358 | 0.449 | inactive
CDK16 | 3 | -0.747 | -2.29 | inactive
YBX3 | 1 | -1.1 | -4.78 | inactive
YBX3 | 2 | -0.167 | 1.79 | inactive
YBX3 | 3 | -0.348 | 0.521 | inactive
LRCOL1 | 1 | 0.654 | 7.57 | inactive
LRCOL1 | 2 | 1.17 | 11.2 | inactive
LRCOL1 | 3 | 0.599 | 7.18 | inactive
TRPM3 | 1 | -1.43 | -7.1 | inactive
TRPM3 | 2 | -0.435 | -0.094 | inactive
TRPM3 | 3 | 0.542 | 6.78 | inactive
LBHD1 | 1 | 3.36 | 26.6 | inactive
LBHD1 | 2 | -0.334 | 0.614 | inactive
LBHD1 | 3 | 0.115 | 3.78 | inactive
RBM22 | 1 | -0.101 | 2.26 | inactive
RBM22 | 2 | 0.725 | 8.07 | inactive
RBM22 | 3 | -0.371 | 0.358 | inactive

Targets listed so far whose gene name starts with N or n:
gene symbol | reagent | G2 robust z-score | G2 cells, % of GMNN control | Outcome
NUP205 | 1 | 1.38 | 12.7 | inactive
NUP205 | 2 | 1.63 | 14.5 | inactive
NUP205 | 3 | 2 | 17 | inactive
